No constants are given. Whether binding was seen depends on the method and setting. Binding seen in cells or lysates may run through a third protein. Binding calls can cover weak binding; strength is not graded here.
Molecular target: T1, RAB11B (human (endogenous in SH-SY5Y)) (UniProt Q15907)
T1 sequence: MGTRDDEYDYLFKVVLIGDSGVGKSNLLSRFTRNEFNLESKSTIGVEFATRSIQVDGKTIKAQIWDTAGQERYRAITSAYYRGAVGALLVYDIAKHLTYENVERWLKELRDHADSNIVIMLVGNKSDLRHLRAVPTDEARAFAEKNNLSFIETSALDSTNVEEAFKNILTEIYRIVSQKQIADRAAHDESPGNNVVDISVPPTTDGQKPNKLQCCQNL
Assay: proximity ligation; Duolink In Situ Red kit on fixed, permeabilised SH-SY5Y cells infected with EV-A71 S41 (MOI 0.1), 24 h.p.i.; uninfected cells too for CCT8 with RAB11A; pairs of mouse and rabbit primary antibodies

Substance: EV-A71 3D
- binding: binds

— article PMC11212238
